PubChem BioAssay AID1224828 | NIAID | 2016
Test: 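Knock-downs that increase or decrease LPS-induced p65 nuclear translocation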 (primary screen). System: mouse RAW264.7 G9 macrophage reporter cells (GFP-p65, Tnf promoter-mCherry). Reagents: siRNA pool against mouse genes, 100 nM. Timing: 2 days siRNA transfection, then 40 min LPS before fixation. Conditions: LPS (Salmonella minnesota R595) at 10 ng/ml. Measured: 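Imaged p65 nuclear translocation ratio, normalised to the plate median, converted to robust z-scores and averaged across two replicates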. Reading the numbers: p65 translocation robust z-score: higher = more nuclear NF-kappaB p65 after LPS than the plate median; nuclear/cytoplasmic p65 ratio: higher = more nuclear NF-kappaB p65. Call rule: 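Called active when z exceeds 3.3 or falls under -1.56 (median of Tlr4 controls), giving activity score of at least 50; no calls for control wells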. Meaning of the calls: active = hit (p65 shift raised or lowered); inactive = no clear change.
In all, the deposit lists about 17,000 reagents; shown is an unselected part. In the full data, 762 (4.5%) were called active. 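Active calls include both raised and lowered p65 entry, mostly lowered; wells with fewer than 50 cells lack a z-score.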 Raw values vary from plate to plate and are shown uncorrected.

Depletion of Jmjd6 resulted in: p65 translocation robust z-score -0.51; nuclear/cytoplasmic p65 ratio, rep 1 = 1.41; nuclear/cytoplasmic p65 ratio, rep 2 = 1.35; low cell count flag enough cells to score; inactive.
With knock-down of Glud1 the results were p65 translocation robust z-score -0.28; nuclear/cytoplasmic p65 ratio, rep 1 = 1.31; nuclear/cytoplasmic p65 ratio, rep 2 = 1.42; low cell count flag enough cells to score; inactive.
After knock-down of Cacng3, the screen gave p65 translocation robust z-score 0.4; nuclear/cytoplasmic p65 ratio, rep 1 = 1.46; nuclear/cytoplasmic p65 ratio, rep 2 = 1.84; low cell count flag enough cells to score; inactive.
For Slc25a11, the entry reads p65 translocation robust z-score 0.39; nuclear/cytoplasmic p65 ratio, rep 1 = 1.38; nuclear/cytoplasmic p65 ratio, rep 2 = 1.37; low cell count flag enough cells to score; inactive.
Against Ccnq the deposit lists p65 translocation robust z-score -0.33; nuclear/cytoplasmic p65 ratio, rep 1 = 1.35; nuclear/cytoplasmic p65 ratio, rep 2 = 1.32; low cell count flag enough cells to score; inactive.
Depletion of Pabir3 gave: p65 translocation robust z-score -1.17; nuclear/cytoplasmic p65 ratio, rep 1 = 1.12; nuclear/cytoplasmic p65 ratio, rep 2 = 1.12; low cell count flag enough cells to score; inactive.
Zfp472 showed nuclear/cytoplasmic p65 ratio, rep 1 = 2.2; nuclear/cytoplasmic p65 ratio, rep 2 = 1.27; low cell count flag fewer than 50 cells per well; well left out of scoring; inactive.
Against Prkcg the deposit lists p65 translocation robust z-score 0.98; nuclear/cytoplasmic p65 ratio, rep 1 = 1.82; nuclear/cytoplasmic p65 ratio, rep 2 = 1.52; low cell count flag enough cells to score; inactive.
After knock-down of Ces1d, the record shows p65 translocation robust z-score 0.5; nuclear/cytoplasmic p65 ratio, rep 1 = 1.38; nuclear/cytoplasmic p65 ratio, rep 2 = 1.44; low cell count flag enough cells to score; inactive.
Knock-down of Dera gave: p65 translocation robust z-score -0.37; nuclear/cytoplasmic p65 ratio, rep 1 = 1.35; nuclear/cytoplasmic p65 ratio, rep 2 = 1.56; low cell count flag enough cells to score; inactive.
Against Shc2, the values are p65 translocation robust z-score -0.02; nuclear/cytoplasmic p65 ratio, rep 1 = 1.48; nuclear/cytoplasmic p65 ratio, rep 2 = 1.62; low cell count flag enough cells to score; inactive.
Tmbim4 scored p65 translocation robust z-score 0.78; nuclear/cytoplasmic p65 ratio, rep 1 = 1.55; nuclear/cytoplasmic p65 ratio, rep 2 = 1.65; low cell count flag enough cells to score; inactive.
With knock-down of Slc38a7 the results were p65 translocation robust z-score 0.22; nuclear/cytoplasmic p65 ratio, rep 1 = 1.57; nuclear/cytoplasmic p65 ratio, rep 2 = 1.93; low cell count flag enough cells to score; inactive.
Depletion of Dcx came out at: nuclear/cytoplasmic p65 ratio, rep 1 = 1.65; nuclear/cytoplasmic p65 ratio, rep 2 = 1.92; low cell count flag fewer than 50 cells per well; well left out of scoring; inactive.
Depletion of 4921511C20Rik gave: p65 translocation robust z-score -1.1; nuclear/cytoplasmic p65 ratio, rep 1 = 1.1; nuclear/cytoplasmic p65 ratio, rep 2 = 1.18; low cell count flag enough cells to score; inactive.
With knock-down of 2810407A14Rik, the record shows p65 translocation robust z-score 1.48; nuclear/cytoplasmic p65 ratio, rep 1 = 1.33; nuclear/cytoplasmic p65 ratio, rep 2 = 1.66; low cell count flag enough cells to score; inactive.
After knock-down of Vmn1r180 the results were p65 translocation robust z-score 1.19; nuclear/cytoplasmic p65 ratio, rep 1 = 1.24; nuclear/cytoplasmic p65 ratio, rep 2 = 1.36; low cell count flag enough cells to score; inactive.
With knock-down of Plod2, the record shows p65 translocation robust z-score -0.39; nuclear/cytoplasmic p65 ratio, rep 1 = 1.33; nuclear/cytoplasmic p65 ratio, rep 2 = 1.17; low cell count flag enough cells to score; inactive.
Cldn8 showed nuclear/cytoplasmic p65 ratio, rep 1 = 1.28; nuclear/cytoplasmic p65 ratio, rep 2 = 1.42; low cell count flag fewer than 50 cells per well; well left out of scoring; inactive.
After knock-down of Adamts4, the record shows p65 translocation robust z-score -0.42; nuclear/cytoplasmic p65 ratio, rep 1 = 1.6; nuclear/cytoplasmic p65 ratio, rep 2 = 1.51; low cell count flag enough cells to score; inactive.
Knock-down of Tnmd gave: nuclear/cytoplasmic p65 ratio, rep 1 = 2.2; nuclear/cytoplasmic p65 ratio, rep 2 = 1.43; low cell count flag fewer than 50 cells per well; well left out of scoring; inactive.

Targets above whose target name begins with D or d:
Dera → p65 translocation robust z-score = -0.37; nuclear/cytoplasmic p65 ratio, rep 1 = 1.35; nuclear/cytoplasmic p65 ratio, rep 2 = 1.56; low cell count flag = enough cells to score; outcome = inactive
Dcx → nuclear/cytoplasmic p65 ratio, rep 1 = 1.65; nuclear/cytoplasmic p65 ratio, rep 2 = 1.92; low cell count flag = fewer than 50 cells per well; well left out of scoring; outcome = inactive
